Measured values published in publication PMC4363203.
Results are given in words; binding and its absence hold for the method and conditions named. Binding seen in cells or lysates may run through a third protein. Some binding calls cover weakened binding; strength is not graded here.

Chains of the proteins cited; added tags and fusions are not shown.
UniProt Q9UER7: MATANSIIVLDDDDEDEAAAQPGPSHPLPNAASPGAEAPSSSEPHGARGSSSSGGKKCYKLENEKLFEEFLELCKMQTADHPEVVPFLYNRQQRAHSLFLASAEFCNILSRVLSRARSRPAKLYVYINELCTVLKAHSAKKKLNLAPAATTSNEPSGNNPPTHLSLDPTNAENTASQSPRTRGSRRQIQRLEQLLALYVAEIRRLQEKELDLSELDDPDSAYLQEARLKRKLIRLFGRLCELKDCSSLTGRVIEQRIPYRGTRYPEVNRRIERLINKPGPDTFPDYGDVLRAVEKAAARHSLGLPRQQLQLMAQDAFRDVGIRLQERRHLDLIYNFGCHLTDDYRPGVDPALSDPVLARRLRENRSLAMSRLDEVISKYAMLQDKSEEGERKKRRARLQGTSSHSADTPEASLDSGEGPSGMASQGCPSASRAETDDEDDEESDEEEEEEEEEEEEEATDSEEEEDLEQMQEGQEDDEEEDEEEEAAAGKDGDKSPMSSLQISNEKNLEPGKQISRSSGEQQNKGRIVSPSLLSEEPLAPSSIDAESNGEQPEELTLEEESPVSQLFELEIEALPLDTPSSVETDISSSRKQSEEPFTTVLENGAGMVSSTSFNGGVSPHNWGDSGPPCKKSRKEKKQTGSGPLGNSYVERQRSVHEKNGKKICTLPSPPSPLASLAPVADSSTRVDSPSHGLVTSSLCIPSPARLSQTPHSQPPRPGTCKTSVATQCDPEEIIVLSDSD
UniProt P46100: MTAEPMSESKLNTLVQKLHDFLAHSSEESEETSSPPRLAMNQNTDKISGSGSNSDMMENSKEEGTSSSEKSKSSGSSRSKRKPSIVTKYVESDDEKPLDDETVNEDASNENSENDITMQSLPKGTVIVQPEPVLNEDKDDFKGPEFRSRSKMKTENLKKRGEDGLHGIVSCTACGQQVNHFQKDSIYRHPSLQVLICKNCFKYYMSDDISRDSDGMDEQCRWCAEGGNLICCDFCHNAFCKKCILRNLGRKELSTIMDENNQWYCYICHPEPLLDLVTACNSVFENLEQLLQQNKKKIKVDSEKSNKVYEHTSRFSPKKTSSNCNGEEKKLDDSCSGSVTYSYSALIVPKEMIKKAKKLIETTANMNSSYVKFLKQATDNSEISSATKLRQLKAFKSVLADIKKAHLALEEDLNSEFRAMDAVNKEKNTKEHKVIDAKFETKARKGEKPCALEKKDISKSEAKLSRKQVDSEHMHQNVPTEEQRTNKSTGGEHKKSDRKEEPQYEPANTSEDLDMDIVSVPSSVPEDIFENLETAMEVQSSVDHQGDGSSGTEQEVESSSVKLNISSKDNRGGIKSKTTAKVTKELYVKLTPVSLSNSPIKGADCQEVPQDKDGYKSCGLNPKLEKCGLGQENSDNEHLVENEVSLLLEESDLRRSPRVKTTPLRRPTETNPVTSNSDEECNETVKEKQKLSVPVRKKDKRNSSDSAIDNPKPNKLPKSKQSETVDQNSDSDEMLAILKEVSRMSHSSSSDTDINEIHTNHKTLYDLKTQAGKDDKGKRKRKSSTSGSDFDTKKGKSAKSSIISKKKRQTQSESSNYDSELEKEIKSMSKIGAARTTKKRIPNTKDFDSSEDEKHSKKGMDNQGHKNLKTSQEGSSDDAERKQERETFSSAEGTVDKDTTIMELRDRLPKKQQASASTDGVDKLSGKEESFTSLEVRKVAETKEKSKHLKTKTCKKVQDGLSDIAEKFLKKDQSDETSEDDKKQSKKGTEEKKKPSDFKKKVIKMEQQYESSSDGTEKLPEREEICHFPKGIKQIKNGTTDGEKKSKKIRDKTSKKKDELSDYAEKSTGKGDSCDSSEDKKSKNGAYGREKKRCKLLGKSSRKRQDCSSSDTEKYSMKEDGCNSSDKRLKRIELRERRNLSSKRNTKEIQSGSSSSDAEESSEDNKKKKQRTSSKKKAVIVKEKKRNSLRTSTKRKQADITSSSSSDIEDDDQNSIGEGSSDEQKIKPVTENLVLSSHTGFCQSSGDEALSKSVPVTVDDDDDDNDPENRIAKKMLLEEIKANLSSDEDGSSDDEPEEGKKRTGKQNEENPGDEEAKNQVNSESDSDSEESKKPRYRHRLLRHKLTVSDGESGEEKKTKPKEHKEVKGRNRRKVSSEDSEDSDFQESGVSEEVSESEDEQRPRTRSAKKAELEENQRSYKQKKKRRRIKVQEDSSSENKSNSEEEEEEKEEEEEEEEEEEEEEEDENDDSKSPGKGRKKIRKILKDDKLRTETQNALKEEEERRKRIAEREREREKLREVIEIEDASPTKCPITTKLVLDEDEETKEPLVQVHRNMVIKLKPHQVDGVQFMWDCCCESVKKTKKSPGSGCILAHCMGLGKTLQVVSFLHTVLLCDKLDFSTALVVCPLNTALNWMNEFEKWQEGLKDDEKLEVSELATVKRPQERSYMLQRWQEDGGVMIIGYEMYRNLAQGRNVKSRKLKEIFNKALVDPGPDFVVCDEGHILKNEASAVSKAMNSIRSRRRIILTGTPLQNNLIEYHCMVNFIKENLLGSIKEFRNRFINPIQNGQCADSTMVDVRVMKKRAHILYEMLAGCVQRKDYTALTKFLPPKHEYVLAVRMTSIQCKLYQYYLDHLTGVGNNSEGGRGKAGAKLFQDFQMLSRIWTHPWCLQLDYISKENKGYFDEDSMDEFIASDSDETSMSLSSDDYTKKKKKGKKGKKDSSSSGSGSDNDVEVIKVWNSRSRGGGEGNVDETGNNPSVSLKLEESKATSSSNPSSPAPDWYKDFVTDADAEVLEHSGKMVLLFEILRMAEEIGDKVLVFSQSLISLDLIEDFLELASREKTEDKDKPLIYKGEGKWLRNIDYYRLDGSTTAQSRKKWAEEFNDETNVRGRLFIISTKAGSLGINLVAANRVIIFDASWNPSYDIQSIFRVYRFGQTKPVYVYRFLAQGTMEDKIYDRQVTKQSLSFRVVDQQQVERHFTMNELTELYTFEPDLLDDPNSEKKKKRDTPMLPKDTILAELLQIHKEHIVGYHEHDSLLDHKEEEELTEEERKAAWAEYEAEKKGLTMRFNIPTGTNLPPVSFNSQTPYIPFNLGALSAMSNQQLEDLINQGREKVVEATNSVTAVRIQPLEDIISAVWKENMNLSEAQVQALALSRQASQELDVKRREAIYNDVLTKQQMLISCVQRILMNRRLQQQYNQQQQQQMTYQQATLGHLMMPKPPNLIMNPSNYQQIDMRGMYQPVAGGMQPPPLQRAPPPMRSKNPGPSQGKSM

Biological target: T1, centromere protein B (CENP-B), inner kinetochore protein (human (endogenous in HcoEpiC, HeLa and SW480)) (UniProt P07199)
T1 sequence: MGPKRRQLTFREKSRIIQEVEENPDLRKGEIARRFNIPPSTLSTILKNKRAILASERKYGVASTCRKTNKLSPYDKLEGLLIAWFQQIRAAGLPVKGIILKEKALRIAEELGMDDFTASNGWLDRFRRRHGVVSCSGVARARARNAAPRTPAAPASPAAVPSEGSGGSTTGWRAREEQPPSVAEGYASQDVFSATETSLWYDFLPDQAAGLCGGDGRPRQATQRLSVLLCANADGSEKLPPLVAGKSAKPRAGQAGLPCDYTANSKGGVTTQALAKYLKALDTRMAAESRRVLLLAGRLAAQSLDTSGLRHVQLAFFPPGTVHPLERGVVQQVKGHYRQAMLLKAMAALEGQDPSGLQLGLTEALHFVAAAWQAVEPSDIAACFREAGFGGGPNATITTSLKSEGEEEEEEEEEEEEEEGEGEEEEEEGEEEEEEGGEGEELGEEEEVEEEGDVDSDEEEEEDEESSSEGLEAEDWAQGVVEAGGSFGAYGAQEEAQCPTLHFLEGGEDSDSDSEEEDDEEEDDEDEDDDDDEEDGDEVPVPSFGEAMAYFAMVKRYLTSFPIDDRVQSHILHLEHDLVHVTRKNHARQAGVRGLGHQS
Assay: co-IP; native chromatin IP with anti-CENP-B from MNase-digested nuclear chromatin (mostly mono-, di- and tri-nucleosomal arrays) extracted in low salt buffer (0.5X PBS, 5 mM EGTA) overnight at 4°C; normal colon, HeLa and SW480 cells; quantitative two-color fluorescent western blot

binding | Substance
binds | DAXX, transcription-coupled histone chaperone (from UniProt Q9UER7 1-740)
binds | centromere protein A (CENP-A), histone H3 variant (from UniProt P49450 1-140) (other; other documents disagree on this pair)
binds | ATRX, transcription-coupled histone chaperone (from UniProt P46100 1-2492)
